For 2 substances, binding results are on record in PMC4404006.

Amino acid sequences for entries named in this document (tags omitted).
UniProt O44126: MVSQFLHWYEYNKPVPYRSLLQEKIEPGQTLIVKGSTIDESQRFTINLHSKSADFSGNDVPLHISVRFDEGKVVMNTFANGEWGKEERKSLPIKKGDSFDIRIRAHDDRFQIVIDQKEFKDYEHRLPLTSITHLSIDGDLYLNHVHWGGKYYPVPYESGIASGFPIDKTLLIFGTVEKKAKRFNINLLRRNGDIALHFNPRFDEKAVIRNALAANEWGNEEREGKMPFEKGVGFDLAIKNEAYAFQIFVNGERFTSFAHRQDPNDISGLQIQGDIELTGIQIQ
UniProt A0A452G813: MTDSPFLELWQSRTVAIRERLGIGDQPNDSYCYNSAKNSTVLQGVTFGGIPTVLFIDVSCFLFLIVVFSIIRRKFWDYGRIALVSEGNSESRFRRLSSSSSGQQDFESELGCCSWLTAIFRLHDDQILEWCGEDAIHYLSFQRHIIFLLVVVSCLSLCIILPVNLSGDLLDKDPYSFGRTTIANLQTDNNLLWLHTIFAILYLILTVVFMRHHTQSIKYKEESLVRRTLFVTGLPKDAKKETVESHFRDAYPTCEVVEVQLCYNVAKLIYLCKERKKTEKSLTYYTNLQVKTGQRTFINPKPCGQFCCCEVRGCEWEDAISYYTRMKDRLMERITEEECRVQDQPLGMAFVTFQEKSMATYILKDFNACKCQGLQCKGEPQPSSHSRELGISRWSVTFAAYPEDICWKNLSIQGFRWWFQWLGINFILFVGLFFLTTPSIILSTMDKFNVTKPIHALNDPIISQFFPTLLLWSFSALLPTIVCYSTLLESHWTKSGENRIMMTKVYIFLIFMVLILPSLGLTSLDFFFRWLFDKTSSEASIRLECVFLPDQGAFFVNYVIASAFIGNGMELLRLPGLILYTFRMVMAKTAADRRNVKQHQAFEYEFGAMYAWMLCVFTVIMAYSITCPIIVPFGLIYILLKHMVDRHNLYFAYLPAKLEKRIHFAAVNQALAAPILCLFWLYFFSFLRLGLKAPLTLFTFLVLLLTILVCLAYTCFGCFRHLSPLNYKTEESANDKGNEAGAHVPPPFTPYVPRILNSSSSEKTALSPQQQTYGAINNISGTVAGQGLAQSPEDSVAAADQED

Assay [1] concerns the target Recombinant Haemonchus contortus galectin Hco-gal-m (rHco-gal-m) (Haemonchus contortus) (UniProt O44126). The experiment in a line: co-IP; forward: goat PBMC incubated with rHco-gal-m for 12 h and lysed (1% Triton X-100, 1% NP-40, 150 mM NaCl, pH 7.4); 1 mg lysate precipitated with rat anti-Hco-Gal IgG overnight at 4°C; blot with rat anti-TMEM63A-NO IgG; only the target purified.

The target of assay [2] is Transmembrane protein 63A (TMEM63A), endogenous in goat PBMC (goat (endogenous in goat PBMC)). The experiment in a line: co-IP; reverse: goat PBMC incubated with rHco-gal-m for 12 h and lysed; 1 mg lysate precipitated with rat anti-TMEM63A-NO IgG overnight at 4°C; blot with rat anti-Hco-Gal IgG; only the binder purified.

These are yes or no findings as the source states them, for the method shown. In cells and extracts the contact can be indirect. Some results given as binding are weak or reduced against the parent protein; the word gives no strength.

“Transmembrane protein 63A (TMEM63A), endogenous in goat PBMC (from UniProt A0A452G813 1-803)”: the binding result in assay [1] is “binds”.

Take “Recombinant Haemonchus contortus galectin Hco-gal-m (rHco-gal-m) (from UniProt O44126 1-283)”: in assay [2], the binding entry was “binds”.
